# Reference: PubChem BioAssay AID1671190 (National Center for Advancing Translational Sciences (NCATS), 2021)
# Sequences of proteins named here, by UniProt entry; tags and fusion partners are left off.
# UniProt P18054, whole entry, looked up: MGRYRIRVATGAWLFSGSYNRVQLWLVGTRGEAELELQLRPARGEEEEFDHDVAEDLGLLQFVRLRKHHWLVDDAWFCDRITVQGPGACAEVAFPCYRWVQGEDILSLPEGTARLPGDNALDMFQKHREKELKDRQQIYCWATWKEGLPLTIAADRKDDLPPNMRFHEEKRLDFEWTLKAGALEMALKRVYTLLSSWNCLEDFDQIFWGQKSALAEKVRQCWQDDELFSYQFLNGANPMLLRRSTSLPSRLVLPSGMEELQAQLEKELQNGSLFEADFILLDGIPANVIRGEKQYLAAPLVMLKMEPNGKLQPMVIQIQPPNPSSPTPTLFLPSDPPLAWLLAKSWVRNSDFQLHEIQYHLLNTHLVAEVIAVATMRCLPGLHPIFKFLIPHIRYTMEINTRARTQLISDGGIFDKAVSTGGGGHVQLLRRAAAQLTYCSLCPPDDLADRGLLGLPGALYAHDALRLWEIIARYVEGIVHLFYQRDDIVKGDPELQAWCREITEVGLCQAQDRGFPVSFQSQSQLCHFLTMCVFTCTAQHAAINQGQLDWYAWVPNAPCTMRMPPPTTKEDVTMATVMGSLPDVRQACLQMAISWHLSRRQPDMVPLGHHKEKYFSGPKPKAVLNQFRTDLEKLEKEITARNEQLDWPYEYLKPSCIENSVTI
# Several values for one entry are separate records, joined by “and”; a condition that tells them apart may be missing. Equal entries are not always repeated. Out of some 580,000 compounds screened, about 6,100 (1.1%) were called active. Inconclusive results, whose numbers are uncertain, are shown with a selection of clear calls. Calls come from the whole dose curve; as a rule, active = well fitted inhibition curve with a large enough effect; inconclusive = small, poorly fitted or top-dose-only effect, or another doubt; inactive = no such curve, though single readings can be large or run the other way. A potency beside an inconclusive call is a rough fit, not a confirmed value.
# Target: Polyunsaturated fatty acid lipoxygenase ALOX12 (Homo sapiens) (UniProt P18054)
# Assay: Primary qHTS assay for inhibitors of human arachidonate 12S-lipoxygenase (ALOX12): Round 2
# Settings: purified 12hLO, xylenol orange hydroperoxide absorbance; series mostly up to 108 µM
# Method in brief: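 Purified human 12hLO (150 nM final) in 25 mM Hepes, 0.01% Triton X-100, pH 7.0 was preincubated 15 min at room temperature with compound. Then 40 uM arachidonic acid was added, 30 min. Hydroperoxide was read by Fe-XO absorbance ratio 573/405 nm.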
# Potency is the fitted concentration of half-maximal effect.
row,Structure (SMILES),Potency
1,CCOC(=O)c1c(NC(=S)Nc2ccccc2)sc2c1CCN(CC)C2,"inconclusive: 39.8 µM [inhibitor, partial curve, poor fit]"
2,O=C(CCc1nc(-c2ccccc2)no1)NCC1CCCO1 (stereo not given),"inconclusive: 39.8 µM [inhibitor, partial curve, poor fit]"
3,CCN1CCN(Cc2c(O)ccc3c2O/C(=C\c2ccccc2)C3=O)CC1,inactive
4,COc1ccccc1CNC(=O)CCC(=O)N1CC(C)Sc2ccccc21 (stereo not given),inactive
5,O=c1n(-c2ccc(C(F)(F)F)cc2)nc2n1CCN(Cc1ccc(F)cc1)C2,inactive
6,CC(C)OC(=O)c1cccc(C(=O)Oc2ccccc2)n1,inactive
7,CCOc1ccccc1C(c1c(O)nc(SC)[nH]c1=O)c1c(O)nc(SC)[nH]c1=O,"inconclusive: 100 µM [inhibitor, partial curve, poor fit]"
8,COc1ccc(C2=NOC(Cn3nc(C(=O)NCc4ccco4)cc3-c3ccccc3)C2)cc1 (stereo not given),"inconclusive: 79.4 µM [inhibitor, partial curve, poor fit]"
9,Oc1ccccc1-c1nnc(SCCN2CCOCC2)n1Cc1ccccc1,"inconclusive: 14.1 µM [inhibitor, partial curve, poor fit]"
10,CCNC(=O)N1CC[C@@H](CC(=O)O)[C@@H](CC2=NCCc3ccc(C(C)(C)C)cc32)C1,"inconclusive: 28.2 µM [inhibitor, full curve]"
11,O=S(=O)(Nc1cccc(C(F)(F)F)c1)c1ccc(NS(=O)(=O)c2ccc3c(c2)OCCO3)cc1,"inconclusive: 0.562 µM [inhibitor, full curve, poor fit]"
12,CC(CCc1ccccc1)NC(=O)COC(=O)c1ccccc1Br (stereo not given),inactive
13,COCC(C)NC(C(=O)Nc1ccc(Cl)c([N+](=O)[O-])c1)c1ccccc1 (stereo not given),"inconclusive: 1.58 µM [inhibitor, full curve, poor fit]"
14,O=C(COC(=O)c1ccccc1)Nc1ncc([N+](=O)[O-])s1,active: 39.8 µM
15,c1nc(NCc2ccc3c(c2)OCO3)c2cc(-c3ccoc3)ccc2n1,"inconclusive: 39.8 µM [inhibitor, partial curve, poor fit]"
16,CCC(=O)Nc1ccc2nc(C3CC3)n(Cc3ccc(C(C)(C)C)cc3)c(=O)c2c1,inactive
17,O=C(Nc1ccc(Br)cc1F)c1sccc1-n1cccc1,"inconclusive: 44.7 µM [inhibitor, partial curve, poor fit]"
18,CC(=O)Nc1ccc(N=NC2C(=O)N(C(N)=S)N=C2C)cc1 (stereo not given),inactive
19,COc1cc(/C=C(/C#N)C(=O)c2ccccc2C)cc(Cl)c1O,"inconclusive: 17.8 µM [inhibitor, full curve, poor fit]"
20,O=C(Nc1nc2nc(-c3ccccc3)cc(=O)n2[nH]1)c1ccccc1,"inconclusive: 2.51 µM [inhibitor, full curve, poor fit]"
21,COc1ccc2c(C)c(CCC(=O)NCc3ccc4c(c3)OCO4)c(=O)oc2c1,inactive
22,CNC(=O)[C@@H]1C[C@@H](n2cc(C(C)(C)NC(=O)CC3CCCC3)nn2)CN1,"inconclusive: 3.98 µM [inhibitor, full curve, poor fit]"

row,Structure (SMILES),Potency
1,N#Cc1cc(Br)ccc1OCc1ccccc1Cl,"inconclusive: 141 µM [inhibitor, single point]"
2,CCc1nc(-c2c3n(c(=O)n(CC(=O)Nc4cccc(Cl)c4)c2=O)CCCC3)no1,inactive
3,COc1cc2c(cc1OC)CN(Cc1cc(OC)c3c(c1)OCO3)CC2,inactive
4,CC(C)(C)c1csc(NC(=O)Cc2cccs2)n1,"inconclusive: 79.4 µM [inhibitor, single point]"
5,O=C(Cc1ccccc1)N1CCC2(Cc3ccccc3NC2=O)C1 (stereo not given),"inconclusive: 112 µM [inhibitor, partial curve, poor fit]"
6,CCC1Nc2ncnc(N3CCCCC3)c2N(Cc2ccc(C)cc2)C1=O (stereo not given),"inconclusive: 70.8 µM [inhibitor, partial curve, poor fit] and inconclusive: 31.6 µM [inhibitor, partial curve, poor fit]"
7,Cc1nn(CC(=O)N2CCc3ccccc32)c(C)c1S(=O)(=O)N1CCCC(C(=O)NC2CC2)C1 (stereo not given),inactive
8,C=C(C)C(=O)Nc1cccc(C2=NOC3(C2)C[C@H](C(N)=O)N(C(=O)c2ccccc2C(=O)c2ccccc2)C3)c1 (stereo not given in full),inactive
9,CC(C)NC(=O)NC(=O)COC(=O)c1cc(-c2cccs2)nc2ccccc12,inactive
10,COc1ccc(C2CC(=O)c3c([nH]c(C(=O)OCc4ccccc4)c3C)C2)cc1 (stereo not given),inactive
11,Cc1ccc(OCCn2cc(C(=O)c3cccs3)c3ccccc32)cc1,inactive
12,COc1ccccc1-n1c(=O)n(CC(=O)NC(C)c2ccccc2)c(=O)c2c(C)cc(C)nc21 (stereo not given),"inconclusive: 50.1 µM [inhibitor, partial curve, poor fit]"
13,O=C(c1cccc2[nH]ccc12)N1CCC2(CC1)N=C(c1ccc(Cl)cc1)NO2,"inconclusive: 20 µM [inhibitor, full curve]"
14,N#CCCn1c(SCC(=O)N(C2CCCCC2)C2CCS(=O)(=O)C2)nc2ccccc21 (stereo not given),"inconclusive: 141 µM [inhibitor, partial curve, poor fit]"
15,CSCc1ccc(C(=O)N2CCC(CCC(=O)N(C)Cc3ccccc3)CC2)o1,"inconclusive: 39.8 µM [inhibitor, partial curve, poor fit]"
16,CC1(C)CC(=O)C(C=Nc2ccc(N)cc2)=C(O)C1,inactive
17,CCCCCNC(=O)C(c1ccncc1)n1c(=O)c(-c2cc3ccccc3[nH]2)nc2ccccc21 (stereo not given),"inconclusive: 50.1 µM [inhibitor, partial curve, poor fit]"
18,O=C(c1cnc2ccc(Cl)cc2c1Cl)N1CCOCC1,"inconclusive: 126 µM [inhibitor, single point]"
19,Cc1cc(C)nc(N(C#N)CCOc2ccc(Cl)cc2)n1,inactive
20,Cc1cc2oc(=O)cc(CN3CCOC(C)C3)c2cc1Cl (stereo not given),inactive
21,Cc1ccc(-c2nnn(Cc3ncc(-c4ccccc4)o3)n2)cc1,"inconclusive: 17.8 µM [inhibitor, full curve, poor fit]"
22,Cc1ccsc1/C=C/C1=NCCCN1C,"inconclusive: 0.316 µM [inhibitor, full curve, poor fit]"

row,Structure (SMILES),Potency
1,COCCn1c2c(c(=O)n1-c1ccccc1)CCN(Cc1cccc(C#N)c1)C2,"inconclusive: 39.8 µM [inhibitor, full curve]"
2,COc1cccc(C(=O)Nc2ccc(-n3nncc3-c3ccccc3)cc2)c1OC,"inconclusive: 112 µM [inhibitor, partial curve, poor fit]"
3,Cc1ccc(-c2cc(NC(=O)Cc3c[nH]c4ccccc34)ccc2N(C)c2cccnc2)cc1,"inconclusive: 50.1 µM [inhibitor, single point]"
4,COc1ccc(CNC(=O)Cn2c(=O)nc(-c3ccccc3)c3cc(Cl)ccc32)cc1OC,"inconclusive: 178 µM [inhibitor, single point]"
5,CN(Cc1ccc(F)cc1)C(=O)c1cccc(S(=O)(=O)N2CCN(c3ccccc3)CC2)c1,"inconclusive: 39.8 µM [inhibitor, partial curve, poor fit]"
6,COc1cc(NC(=O)CN2C(=O)c3ccccc3Sc3ccc(C(=O)N4CCOCC4)cc32)cc(OC)c1OC,"inconclusive: 31.6 µM [inhibitor, partial curve, poor fit]"
7,O=C(Nc1ccc(OCc2ccccc2)cc1)c1cccc2ccccc12,"inconclusive: 3.98 µM [inhibitor, full curve, poor fit]"
8,CC1CC(C)CN(CC(=O)Nc2ccc3c(c2)OCCO3)C1 (stereo not given),"inconclusive: 1.26 µM [inhibitor, full curve, poor fit]"
9,CCCn1c(=O)[nH]c2nc(-c3ccc(S(=O)(=O)O)cc3)[nH]c2c1=O,"inconclusive: 100 µM [inhibitor, single point]"
10,CCCc1nc2cc(C)c(Br)c(C)n2c1CC1CCCCC1,"inconclusive: 141 µM [inhibitor, partial curve, poor fit]"
11,O=C(Nc1cccc(S(=O)(=O)NCc2ccco2)c1)c1cc(-c2ccc(F)cc2)nc2ccccc12,"inconclusive: 17.8 µM [inhibitor, partial curve]"
12,CCOC(=O)c1c(C)[nH]c(C)c1C(=O)COC(=O)COc1ccc(Cl)c(C)c1,"inconclusive: 8.91 µM [inhibitor, full curve, poor fit]"
13,O=C(COC(=O)C(CO)NS(=O)(=O)c1ccc(Br)cc1)Nc1ccc2c(c1)OCCO2 (stereo not given),"inconclusive: 28.2 µM [inhibitor, single point]"
14,Cc1ccn2c(NC3CCCCC3)c(-c3ccc(SC4CCCCC4)cc3)nc2c1,"inconclusive: 79.4 µM [inhibitor, single point]"
15,O=C(CCl)N(c1ccc(Cl)cc1)c1c[nH]c2ccccc12,"inconclusive: 7.08 µM [inhibitor, full curve, poor fit]"
16,O=C(CSc1nnc(-c2ccc(O)cc2)n1Cc1ccco1)c1ccccc1,inactive
17,COc1ccc(CNC(=O)Cc2c(C)c3cc4c(C)coc4cc3oc2=O)cc1,"inconclusive: 141 µM [inhibitor, partial curve, poor fit]"
18,CCOc1cc(N2CCOCC2)c(OCC)cc1NC(C)C(=O)N1CCN(CC)CC1 (stereo not given),active: 3.16 µM
19,COc1ccc2ccccc2c1/C=N/NC(=S)NCCN1CCOCC1,inactive
20,CC(Cc1ccc(O)c(O)c1)(NN)C(=O)O (stereo not given),"inconclusive: 4.85 µM [inhibitor, full curve]"
21,Cc1oc(-c2ccccc2)nc1Cn1cccc(C(F)(F)F)c1=O,"inconclusive: 50.1 µM [inhibitor, single point]"
